# From patent US20220412955A1, “A MODEL OF CLINICAL SYNERGY IN CANCER” (priority 2019, published 2022)
# Some results were stated once for a whole list of compounds, not compound by compound. For at least one compound, name, drawing or mass did not settle the structure.
# Tested on: primary MM cells
# Assay type: cell-based
# Settings: ex vivo, even at maximum solubility levels
# Description: Each well was imaged every 30 minutes for a total duration of up to 6 days.
row,SMILES,time required to reduce cell viability to 30% of initial measurements
1,C[C@@H]1C[C@H]2[C@@H]3CCC4=CC(=O)C=C[C@]4(C)[C@@]3(F)[C@@H](O)C[C@]2(C)[C@@]1(O)C(=O)CO [dexamethasone],over 96 hours
2,Nc1cccc2c1C(=O)N(C1CCC(=O)NC1=O)C2=O (centres unmarked) [pomalidomide],over 96 hours
